## Primary screen of a compound library

Source: ChEMBL document CHEMBL3988442, “University of Dundee, Small-Polar-MMV Screening Library” (2021).

Each number is a percent effect as filed. The controls that fix the scale are not given in the record; negative values are as filed. This is an unselected part of the compounds tested.

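Whole-parasite assay of Trypanosoma brucei over 72 hours; the read-out is not stated. Compounds at 30 µM. Higher reads as stronger inhibition (inferred: compounds with an IC50 in retests scored well above the rest). Values scatter widely below zero; nearly all retest evidence comes from the higher of the two concentrations used. Of about 64,000 compounds tested this way, about 940 (1.5%) reached 50% or more in at least one test.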

SMILES,percent effect
O=C(O)C(F)(F)F.O=C(O)C(F)(F)F.O=C1COC2(CCN(CC3CCOCC3)CC2)CN1Cc1ccccn1,-20.57
O=C1C(Nc2ccc3nccnc3n2)CCN1c1ccccc1F (stereo unspecified),-0.9876
CNC(=O)CN1CCC(NC(=O)N(C)Cc2cc(C)on2)CC1,-13.44
CCC(C)N1CCc2nc(N3CCCC3)nc(NC(C)C)c2C1 (stereo unspecified),80.67
CSCC(C)C(=O)NCc1c(C)nc2cc(=O)[nH]n2c1C (stereo unspecified),-64.12
CNC(=O)C(C)(C)N1CCC[C@H]1C(=O)NC(C)(C)C,-53.16
NC(=O)[C@@H]1Cc2ccccc2CN1CCc1cccs1,-28.98
Cc1cnn(CC2CN(c3ncnc4ccccc34)CCO2)c1 (stereo unspecified),-23.96
COc1ccc(CN2CCC(C(N)=O)CC2)cc1SC(F)(F)F,-4.119
Cc1cnn(CCNCC(=O)N2CCN(c3ccccn3)CC2)c1,-16.91
Cc1cc(C)n(C2CN(CC(O)Cn3cccn3)C2)n1 (stereo unspecified),-13.94
O=C(CNc1cc2c(cc1Cl)OCCCO2)NCc1ccc(F)cc1,-23.47
CC(C)c1nc(C(=O)N(C)c2ccc(Br)cn2)cs1,-42.72
Cc1nc(CN2CCC(O)(c3ccccc3F)CC2)c2ccccn12.O=C(O)CC(O)(CC(=O)O)C(=O)O,-5.12
Cn1ccnc1CN1CCN(c2ccc(C#N)cn2)CC1,25.52
NCC1CN(c2nc(-c3ccccc3)nc3c2CCNCC3)CCO1 (stereo unspecified),3.724
Cl.Cl.Fc1ccc2c(c1)C1(CCNCC1)CC2NC1CC1 (stereo unspecified),28.3
NS(=O)(=O)c1cnn(CCC(=O)N(Cc2ccccc2)C2CC2)c1,-17.93
Cc1ccsc1-c1cccc(-c2ccn(CC3CCNC3)n2)c1 (stereo unspecified),33.01
CC(=O)N1CCC(c2nc(Cc3ccccc3)no2)C1 (stereo unspecified),-18.6
O=c1c2sccc2nc2n1CCN(Cc1cccs1)CC2,16.16
Cc1nc(Cn2c3c(ccc2=O)CC(NC(C)C)CC3)cs1.O=C(O)C(F)(F)F.O=C(O)C(F)(F)F (stereo unspecified),-85.72
N#CCCNC(=O)CN1CCC(c2cc3ccccc3[nH]2)CC1,-43.94
CCC(C)N(Cc1cnc(NCC(=O)O)nc1)Cc1ccsc1 (stereo unspecified),-69.79
NC(=O)CN1CCCC(C(=O)N2CCC(O)(Cc3ccccc3)CC2)C1 (stereo unspecified),-53.27
CS(=O)(=O)Cc1noc(CN2CCN(c3ccccc3Cl)CC2)n1,-23.44
CCSCCNC(=O)c1cnc(-c2ccccc2)nc1O,16.76
CN1CC(=O)N(c2ccsc2)CC12CCN(C(=O)Nc1ccccc1)C2.O=C(O)C(F)(F)F (stereo unspecified),-26.89
Cc1cccc(-n2cnnc2CCCN2CCOCC2)c1,26.78
Cc1noc(C)c1CC(=O)OCc1nc(N)c2ccccc2n1,-50.68
Cc1cc(C)n(CC2CCCN2CC(=O)Nc2nnc(C)s2)n1 (stereo unspecified),-6.208
CC/C=C(/C)C(=O)NCc1ccc(OC)nc1,3.465
Cc1cccnc1C(=O)N1CCCCC1c1[nH]ncc1S(C)(=O)=O (stereo unspecified),30.62
Cc1c[nH]nc1C1CCN(S(=O)(=O)N(C)C)CC1,-11.27
COCCNC(=O)c1cc(S(=O)(=O)N2CCCCC2)cs1,-17.57
CC(C)Cc1cc(NC(=O)c2n[nH]c3ccccc23)n(C)n1,18.73
CNc1cc2c(nn1)CCN(C(=O)c1ccccc1-n1cccn1)C2,-10.13
CCC(CN1CCCC1)n1cncc1-c1cnn(Cc2ccccc2)c1.Cl (stereo unspecified),-8.693
CC1(C)OCC(CNC(=O)c2cnn(-c3ccc(Cl)cc3)c2N)O1 (stereo unspecified),-36.11
Cc1ncsc1-c1cc(C(=O)NCCO)ccn1,-3.456
Cc1ccc2nc(C(=O)N3CCC(CCn4cccn4)CC3)cn2c1,-8.998
O=C(CCNC(=O)c1sccc1-c1ccccc1)NC1CCS(=O)(=O)C1 (stereo unspecified),-13.67
[H][C@@]12CCCO[C@]1([H])[C@@H](N(C)Cc1cncnc1)CN2C(=O)c1ccco1,-60.55
CC(=O)Nc1nc(C(=O)N2CCCC2c2noc(C(C)C)n2)cs1 (stereo unspecified),-6.456
CN(C)CCN1CCC2(CCCN(C(=O)C3CCC3)C2)CC1.O=C(O)C(F)(F)F.O=C(O)C(F)(F)F,-22.46
CC(C)c1nc2c(n1C)CCN(CC(=O)Nc1nccs1)C2,-23.12
Cn1c(CC2CCS(=O)(=O)C2)nnc1SCCOc1cccc(Cl)c1 (stereo unspecified),48.75
Cn1cc(N2CCC3(CCN(S(=O)(=O)C4CC4)C3)C2=O)cn1 (stereo unspecified),16.21
CC(C)[C@H]1COC(=O)N1Cc1nncn1C(C)C,-4.147
CCS(=O)(=O)N1CCC2(CC(=O)N(c3cnn(C)c3)C2)C1 (stereo unspecified),0.9254
O=C(O)C(F)(F)F.c1cnc(N2CCCn3nnc(COCC4CC4)c3C2)nc1,-39.3
CCn1ncc(-c2nc3c[nH]n(CC)c-3n2)c1C,-2.091
COC(=O)COc1nc(C(C)C)no1,3.764
c1ccc2c(c1)COC1(CCCCC1)N2,-23.95
Cc1cc(C)c(C)c(OCCCNC(=O)NC(C)c2nncn2C)c1 (stereo unspecified),-5.281
O=C(c1cccc(-c2ccc(F)cc2)c1)N1CCCC(O)(CO)CC1 (stereo unspecified),-7.127
CN1CCC2(CC1)CN(Cc1ccc(C3CCCCO3)o1)CCCN2C (stereo unspecified),14.72
CCn1c(CN2CCCC2)nnc1C1CCN(S(=O)(=O)CC)CC1,2.718
COCCc1noc(CNC(=O)C2CC(=O)N(C(C)(C)C)C2)n1 (stereo unspecified),-4.2
CCOc1ccc(CC(=O)Nc2cnccc2SCCCO)cc1,-14.97
COc1cccc(CN2CCC(CO)(Cc3ccc(Cl)cc3)CC2)c1O,102.9
CNS(=O)(=O)c1ccc(CN2CCN(Cc3ncccc3C)CC2)cc1,-8.017
O=C(O)C(F)(F)F.O=C(O)C(F)(F)F.[H][C@@]12CCCO[C@]1([H])[C@H](OCc1ccncc1)CN2Cc1ccccc1F,1.745
CCCS(=O)(=O)NC(=O)c1ccc(Br)o1,-56.09
CN(CCCc1cc(-c2ccc(F)cc2)n(C)n1)CC(N)=O,-13.12
CN(C)C(CNC(=O)NCCc1cccc(O)c1)c1ccco1 (stereo unspecified),20.1
O=C(NCCc1nncn1C1CC1)C1(c2ccccc2)CCC1,-83.66
Cc1nnc2n1CCN(CC(=O)NC(C)c1ccc3ccccc3c1)C2 (stereo unspecified),-9.916
O=C(NCCc1cc(N2CCOCC2)nc(N2CCCC2)n1)C1CC1,-2.265
CCN(CC)C(=O)c1ccc(Cl)c(NC(=O)c2cnc(C)cn2)c1,6.618
COc1cc(OC)cc(N2CCC(NCc3cccs3)C2=O)c1 (stereo unspecified),-23.38
NC(=O)CS(=O)(=O)Cc1csc(-c2ccc(F)cc2)n1,-62.36
Cc1cnc(N2CCCC3(COCCN(c4ccc(C)nn4)C3)C2)nc1 (stereo unspecified),-42.85
O=C(O)C(F)(F)F.O=C1COC2(CCN(CC3CC3)CC2)CN1c1ccsc1,-336
Cc1nc2sccn2c1CN(CCCN(C)C)Cc1ccco1.O=C(O)CC(O)(CC(=O)O)C(=O)O,-3.73
COCc1nc(N(C)C)ncc1C(=O)NC(C)C,-18.54